Assay results from article doi:10.1101/2020.07.24.220640.

Protein sequences, listed by entry. Tags and fused reporters are not part of them.
UniProt P13395: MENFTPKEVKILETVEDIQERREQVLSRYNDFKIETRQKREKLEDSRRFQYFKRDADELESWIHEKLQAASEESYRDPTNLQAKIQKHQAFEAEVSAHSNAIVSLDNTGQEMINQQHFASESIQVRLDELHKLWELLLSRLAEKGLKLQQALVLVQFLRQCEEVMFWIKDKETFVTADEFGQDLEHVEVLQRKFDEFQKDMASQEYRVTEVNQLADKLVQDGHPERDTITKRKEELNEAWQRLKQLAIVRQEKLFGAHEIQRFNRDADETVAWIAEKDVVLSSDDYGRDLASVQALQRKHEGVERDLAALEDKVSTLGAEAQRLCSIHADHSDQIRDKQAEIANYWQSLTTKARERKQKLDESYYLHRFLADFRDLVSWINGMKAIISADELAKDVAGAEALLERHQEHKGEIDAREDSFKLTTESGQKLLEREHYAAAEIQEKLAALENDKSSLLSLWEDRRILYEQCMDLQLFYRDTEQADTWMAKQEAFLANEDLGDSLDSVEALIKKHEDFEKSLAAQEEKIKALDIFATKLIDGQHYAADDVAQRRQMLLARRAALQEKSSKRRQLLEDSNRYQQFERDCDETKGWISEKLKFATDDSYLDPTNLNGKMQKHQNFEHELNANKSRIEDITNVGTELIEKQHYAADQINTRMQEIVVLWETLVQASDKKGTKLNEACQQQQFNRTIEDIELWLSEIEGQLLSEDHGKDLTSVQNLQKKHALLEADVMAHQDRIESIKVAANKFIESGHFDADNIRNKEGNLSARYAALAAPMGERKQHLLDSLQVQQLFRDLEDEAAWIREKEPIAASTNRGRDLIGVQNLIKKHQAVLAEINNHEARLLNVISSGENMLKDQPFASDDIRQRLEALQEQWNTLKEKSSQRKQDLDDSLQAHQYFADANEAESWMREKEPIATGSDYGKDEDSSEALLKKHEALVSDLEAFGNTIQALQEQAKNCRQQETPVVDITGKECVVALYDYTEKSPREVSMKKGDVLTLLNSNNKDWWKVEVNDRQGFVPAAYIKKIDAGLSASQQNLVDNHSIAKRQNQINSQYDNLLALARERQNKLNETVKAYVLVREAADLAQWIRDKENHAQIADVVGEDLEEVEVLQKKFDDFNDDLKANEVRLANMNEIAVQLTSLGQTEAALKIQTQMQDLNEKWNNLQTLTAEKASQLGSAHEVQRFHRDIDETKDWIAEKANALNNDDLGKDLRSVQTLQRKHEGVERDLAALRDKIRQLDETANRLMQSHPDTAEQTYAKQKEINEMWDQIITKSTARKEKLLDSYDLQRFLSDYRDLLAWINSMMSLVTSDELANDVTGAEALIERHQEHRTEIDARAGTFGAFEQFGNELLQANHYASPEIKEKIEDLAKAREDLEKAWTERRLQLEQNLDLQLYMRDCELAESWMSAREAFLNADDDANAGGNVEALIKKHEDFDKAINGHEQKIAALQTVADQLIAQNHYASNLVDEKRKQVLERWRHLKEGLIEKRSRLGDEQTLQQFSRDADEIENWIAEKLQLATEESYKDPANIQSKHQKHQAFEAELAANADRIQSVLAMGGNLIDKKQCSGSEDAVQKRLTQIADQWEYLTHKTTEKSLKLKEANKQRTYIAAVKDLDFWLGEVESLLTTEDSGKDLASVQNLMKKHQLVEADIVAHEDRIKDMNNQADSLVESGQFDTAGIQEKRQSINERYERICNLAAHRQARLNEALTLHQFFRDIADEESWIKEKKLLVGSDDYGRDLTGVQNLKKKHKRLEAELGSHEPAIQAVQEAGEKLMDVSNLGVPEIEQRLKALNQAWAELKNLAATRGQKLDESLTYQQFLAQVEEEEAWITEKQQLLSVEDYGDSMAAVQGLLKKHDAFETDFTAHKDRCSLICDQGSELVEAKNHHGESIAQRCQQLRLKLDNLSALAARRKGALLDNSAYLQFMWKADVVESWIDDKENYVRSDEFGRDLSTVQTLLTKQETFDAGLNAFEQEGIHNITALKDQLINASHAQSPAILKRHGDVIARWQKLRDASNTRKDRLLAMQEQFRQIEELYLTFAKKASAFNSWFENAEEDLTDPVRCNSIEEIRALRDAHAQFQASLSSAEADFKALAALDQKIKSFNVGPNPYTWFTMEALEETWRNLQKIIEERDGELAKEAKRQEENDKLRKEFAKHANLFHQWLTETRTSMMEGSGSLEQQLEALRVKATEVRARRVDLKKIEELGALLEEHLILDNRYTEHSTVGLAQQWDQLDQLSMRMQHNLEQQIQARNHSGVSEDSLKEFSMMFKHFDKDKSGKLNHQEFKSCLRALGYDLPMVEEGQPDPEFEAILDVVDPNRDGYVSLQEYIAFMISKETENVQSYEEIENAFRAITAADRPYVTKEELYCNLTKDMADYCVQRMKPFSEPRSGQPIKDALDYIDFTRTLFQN
UniProt Q00963: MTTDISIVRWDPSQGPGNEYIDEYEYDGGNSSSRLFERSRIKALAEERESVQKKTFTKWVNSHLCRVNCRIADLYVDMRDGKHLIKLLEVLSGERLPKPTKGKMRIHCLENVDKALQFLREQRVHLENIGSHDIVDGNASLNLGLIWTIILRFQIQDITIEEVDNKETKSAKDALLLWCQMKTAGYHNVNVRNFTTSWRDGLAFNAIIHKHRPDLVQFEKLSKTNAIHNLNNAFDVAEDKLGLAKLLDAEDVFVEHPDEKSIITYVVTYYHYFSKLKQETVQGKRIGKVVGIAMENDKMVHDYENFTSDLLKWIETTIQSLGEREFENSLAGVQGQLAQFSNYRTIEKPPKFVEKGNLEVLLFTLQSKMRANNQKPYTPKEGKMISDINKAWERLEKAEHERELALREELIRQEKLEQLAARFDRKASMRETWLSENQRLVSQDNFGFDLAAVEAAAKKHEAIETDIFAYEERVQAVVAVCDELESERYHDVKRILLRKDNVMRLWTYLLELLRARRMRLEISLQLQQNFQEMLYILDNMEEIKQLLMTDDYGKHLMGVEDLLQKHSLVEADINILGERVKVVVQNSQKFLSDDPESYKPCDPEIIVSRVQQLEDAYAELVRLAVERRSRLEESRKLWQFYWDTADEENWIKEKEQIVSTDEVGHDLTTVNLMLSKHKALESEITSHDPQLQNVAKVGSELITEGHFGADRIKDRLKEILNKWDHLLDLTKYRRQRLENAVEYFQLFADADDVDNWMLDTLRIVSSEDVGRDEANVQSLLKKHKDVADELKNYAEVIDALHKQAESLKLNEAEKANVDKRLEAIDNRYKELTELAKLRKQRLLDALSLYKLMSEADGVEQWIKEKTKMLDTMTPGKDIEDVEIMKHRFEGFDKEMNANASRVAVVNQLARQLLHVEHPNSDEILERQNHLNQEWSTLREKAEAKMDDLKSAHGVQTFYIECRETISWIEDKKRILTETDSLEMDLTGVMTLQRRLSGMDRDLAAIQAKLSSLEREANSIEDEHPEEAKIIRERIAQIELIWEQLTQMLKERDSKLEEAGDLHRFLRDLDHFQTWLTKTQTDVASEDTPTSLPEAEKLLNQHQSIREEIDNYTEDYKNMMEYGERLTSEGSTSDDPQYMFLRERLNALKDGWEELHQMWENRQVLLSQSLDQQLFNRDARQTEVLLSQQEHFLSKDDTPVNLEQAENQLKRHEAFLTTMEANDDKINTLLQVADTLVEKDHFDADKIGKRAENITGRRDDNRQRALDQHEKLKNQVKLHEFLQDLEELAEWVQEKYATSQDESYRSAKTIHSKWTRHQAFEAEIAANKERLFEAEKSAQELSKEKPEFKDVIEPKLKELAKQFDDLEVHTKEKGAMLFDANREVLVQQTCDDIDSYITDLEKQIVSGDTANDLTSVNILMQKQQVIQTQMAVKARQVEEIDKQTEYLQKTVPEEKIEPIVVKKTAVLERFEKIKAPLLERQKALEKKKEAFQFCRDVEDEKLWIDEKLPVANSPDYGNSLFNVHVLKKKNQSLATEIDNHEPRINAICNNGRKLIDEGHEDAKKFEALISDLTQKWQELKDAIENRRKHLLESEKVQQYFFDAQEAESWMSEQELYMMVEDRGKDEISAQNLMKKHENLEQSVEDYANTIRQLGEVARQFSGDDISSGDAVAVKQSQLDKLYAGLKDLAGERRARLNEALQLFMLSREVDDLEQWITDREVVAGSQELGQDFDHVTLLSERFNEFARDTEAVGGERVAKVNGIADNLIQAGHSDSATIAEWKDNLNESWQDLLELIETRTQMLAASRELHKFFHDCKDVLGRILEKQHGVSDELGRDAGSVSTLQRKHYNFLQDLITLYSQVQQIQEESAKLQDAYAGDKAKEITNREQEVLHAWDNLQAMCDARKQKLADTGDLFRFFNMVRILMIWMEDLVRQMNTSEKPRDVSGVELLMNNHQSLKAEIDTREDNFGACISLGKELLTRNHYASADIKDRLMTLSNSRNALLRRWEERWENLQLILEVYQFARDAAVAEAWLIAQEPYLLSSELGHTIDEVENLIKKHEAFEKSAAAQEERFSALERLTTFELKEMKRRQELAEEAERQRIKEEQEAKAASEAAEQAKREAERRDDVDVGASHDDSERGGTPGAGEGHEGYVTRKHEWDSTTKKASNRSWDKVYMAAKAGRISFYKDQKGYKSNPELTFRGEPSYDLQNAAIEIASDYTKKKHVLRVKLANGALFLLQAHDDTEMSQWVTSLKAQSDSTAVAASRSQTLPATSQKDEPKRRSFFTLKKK

Biological target: α-Spectrin (Drosophila melanogaster (endogenous in testis)) (UniProt P13395)
Test: affinity purification with mass spectrometry

β-Spectrin (from UniProt Q00963 1-2291)
binding: binds

No constants are given. Whether binding was seen depends on the method and setting. Binding seen in cells or lysates may run through a third protein. These calls come from enrichment with a bait or labelling near it, and not all partners need be listed.
